Experimental data reported in the supplement of paper PMC10849652.
This is one part of the list.

By UniProt entry, the sequences of proteins in these tests, tags left out. Where a name states a change or a piece, a line headed by the entry shows the natural chain unless it says otherwise.
UniProt O43298: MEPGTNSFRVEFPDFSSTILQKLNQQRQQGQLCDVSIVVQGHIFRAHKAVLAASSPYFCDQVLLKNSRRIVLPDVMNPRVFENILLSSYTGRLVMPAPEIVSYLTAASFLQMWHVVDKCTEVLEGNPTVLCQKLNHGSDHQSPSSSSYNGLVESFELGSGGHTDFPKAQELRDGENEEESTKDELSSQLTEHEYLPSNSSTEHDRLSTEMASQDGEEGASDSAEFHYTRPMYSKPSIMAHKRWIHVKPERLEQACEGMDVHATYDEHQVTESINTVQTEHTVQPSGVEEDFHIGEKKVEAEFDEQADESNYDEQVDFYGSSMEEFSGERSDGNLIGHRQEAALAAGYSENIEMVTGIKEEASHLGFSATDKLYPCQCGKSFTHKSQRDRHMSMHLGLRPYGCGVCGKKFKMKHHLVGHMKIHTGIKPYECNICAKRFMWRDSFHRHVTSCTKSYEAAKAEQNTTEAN
UniProt Q6PJT7: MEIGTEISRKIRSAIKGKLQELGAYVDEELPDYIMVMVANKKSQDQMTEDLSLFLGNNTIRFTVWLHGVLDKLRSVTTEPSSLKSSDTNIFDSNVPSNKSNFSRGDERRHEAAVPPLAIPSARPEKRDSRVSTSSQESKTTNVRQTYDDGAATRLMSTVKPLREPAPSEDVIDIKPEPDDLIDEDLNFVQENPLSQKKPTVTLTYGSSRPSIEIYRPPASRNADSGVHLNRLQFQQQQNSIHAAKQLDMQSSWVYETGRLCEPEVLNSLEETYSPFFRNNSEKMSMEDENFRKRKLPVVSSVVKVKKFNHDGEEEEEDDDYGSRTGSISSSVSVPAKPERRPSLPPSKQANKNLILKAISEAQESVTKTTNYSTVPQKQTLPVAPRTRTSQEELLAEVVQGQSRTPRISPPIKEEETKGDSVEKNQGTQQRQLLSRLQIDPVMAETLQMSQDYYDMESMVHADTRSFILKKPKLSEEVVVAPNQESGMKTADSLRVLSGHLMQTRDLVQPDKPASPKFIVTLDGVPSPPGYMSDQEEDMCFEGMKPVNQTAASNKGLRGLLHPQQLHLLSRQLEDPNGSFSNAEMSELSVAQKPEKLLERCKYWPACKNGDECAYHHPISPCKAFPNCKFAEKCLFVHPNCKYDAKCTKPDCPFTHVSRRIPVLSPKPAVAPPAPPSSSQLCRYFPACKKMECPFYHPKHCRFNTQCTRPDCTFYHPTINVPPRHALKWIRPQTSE
UniProt Q5D1E8: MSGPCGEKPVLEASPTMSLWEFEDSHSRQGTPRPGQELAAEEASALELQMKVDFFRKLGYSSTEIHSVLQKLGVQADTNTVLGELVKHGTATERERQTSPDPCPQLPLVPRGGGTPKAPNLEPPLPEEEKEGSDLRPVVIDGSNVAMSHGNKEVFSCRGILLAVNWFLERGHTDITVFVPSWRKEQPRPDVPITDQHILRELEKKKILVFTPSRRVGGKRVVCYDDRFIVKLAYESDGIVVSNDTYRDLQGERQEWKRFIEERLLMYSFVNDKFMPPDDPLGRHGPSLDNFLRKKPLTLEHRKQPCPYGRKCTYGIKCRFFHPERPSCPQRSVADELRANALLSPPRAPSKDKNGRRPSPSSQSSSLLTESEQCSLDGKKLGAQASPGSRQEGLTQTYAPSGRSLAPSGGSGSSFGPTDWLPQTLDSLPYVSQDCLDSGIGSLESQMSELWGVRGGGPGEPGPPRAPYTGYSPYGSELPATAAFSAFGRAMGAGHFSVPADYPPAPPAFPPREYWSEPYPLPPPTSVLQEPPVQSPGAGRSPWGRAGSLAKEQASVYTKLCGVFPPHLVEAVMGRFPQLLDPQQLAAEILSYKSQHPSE
UniProt Q9NRH1: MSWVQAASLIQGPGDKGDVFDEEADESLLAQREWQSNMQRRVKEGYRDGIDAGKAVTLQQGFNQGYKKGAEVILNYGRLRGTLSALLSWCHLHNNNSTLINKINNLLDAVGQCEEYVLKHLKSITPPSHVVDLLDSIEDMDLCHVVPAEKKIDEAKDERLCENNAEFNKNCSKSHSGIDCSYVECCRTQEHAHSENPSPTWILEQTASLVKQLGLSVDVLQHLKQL
UniProt Q9BWQ6: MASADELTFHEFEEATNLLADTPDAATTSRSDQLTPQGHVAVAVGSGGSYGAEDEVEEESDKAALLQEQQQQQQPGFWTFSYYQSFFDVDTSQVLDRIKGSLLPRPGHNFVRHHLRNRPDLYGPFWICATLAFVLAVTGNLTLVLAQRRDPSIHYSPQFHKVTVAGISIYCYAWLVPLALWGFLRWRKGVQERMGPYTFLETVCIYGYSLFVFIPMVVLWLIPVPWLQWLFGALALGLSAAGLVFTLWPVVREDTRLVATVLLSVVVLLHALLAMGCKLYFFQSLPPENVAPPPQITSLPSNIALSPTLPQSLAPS
UniProt P58557: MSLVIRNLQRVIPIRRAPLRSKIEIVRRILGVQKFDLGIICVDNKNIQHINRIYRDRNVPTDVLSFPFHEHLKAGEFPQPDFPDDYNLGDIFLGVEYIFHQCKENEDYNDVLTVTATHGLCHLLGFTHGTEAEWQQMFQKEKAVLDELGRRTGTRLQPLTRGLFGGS
UniProt P17010: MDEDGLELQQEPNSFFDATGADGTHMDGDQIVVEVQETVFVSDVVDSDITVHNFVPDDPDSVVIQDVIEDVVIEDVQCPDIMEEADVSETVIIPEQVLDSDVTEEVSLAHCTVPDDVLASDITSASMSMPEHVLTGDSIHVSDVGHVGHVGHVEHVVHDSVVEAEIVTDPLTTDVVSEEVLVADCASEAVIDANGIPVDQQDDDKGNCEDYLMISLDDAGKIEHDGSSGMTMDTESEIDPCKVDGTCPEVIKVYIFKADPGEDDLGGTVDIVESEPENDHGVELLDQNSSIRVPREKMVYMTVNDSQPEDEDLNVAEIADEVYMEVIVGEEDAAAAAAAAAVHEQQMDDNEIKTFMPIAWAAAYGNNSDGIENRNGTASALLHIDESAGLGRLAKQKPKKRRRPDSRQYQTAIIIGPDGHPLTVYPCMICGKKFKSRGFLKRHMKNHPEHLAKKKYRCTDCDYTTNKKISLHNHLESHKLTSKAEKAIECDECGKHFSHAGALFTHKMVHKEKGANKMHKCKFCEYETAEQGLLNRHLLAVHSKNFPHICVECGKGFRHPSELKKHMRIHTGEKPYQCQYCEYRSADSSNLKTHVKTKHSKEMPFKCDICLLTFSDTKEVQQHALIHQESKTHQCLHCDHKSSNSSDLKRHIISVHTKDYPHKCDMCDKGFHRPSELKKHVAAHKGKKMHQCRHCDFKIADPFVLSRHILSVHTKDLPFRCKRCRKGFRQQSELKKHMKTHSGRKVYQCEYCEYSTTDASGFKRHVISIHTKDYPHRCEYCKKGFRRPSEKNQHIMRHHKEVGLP
UniProt Q49AG3: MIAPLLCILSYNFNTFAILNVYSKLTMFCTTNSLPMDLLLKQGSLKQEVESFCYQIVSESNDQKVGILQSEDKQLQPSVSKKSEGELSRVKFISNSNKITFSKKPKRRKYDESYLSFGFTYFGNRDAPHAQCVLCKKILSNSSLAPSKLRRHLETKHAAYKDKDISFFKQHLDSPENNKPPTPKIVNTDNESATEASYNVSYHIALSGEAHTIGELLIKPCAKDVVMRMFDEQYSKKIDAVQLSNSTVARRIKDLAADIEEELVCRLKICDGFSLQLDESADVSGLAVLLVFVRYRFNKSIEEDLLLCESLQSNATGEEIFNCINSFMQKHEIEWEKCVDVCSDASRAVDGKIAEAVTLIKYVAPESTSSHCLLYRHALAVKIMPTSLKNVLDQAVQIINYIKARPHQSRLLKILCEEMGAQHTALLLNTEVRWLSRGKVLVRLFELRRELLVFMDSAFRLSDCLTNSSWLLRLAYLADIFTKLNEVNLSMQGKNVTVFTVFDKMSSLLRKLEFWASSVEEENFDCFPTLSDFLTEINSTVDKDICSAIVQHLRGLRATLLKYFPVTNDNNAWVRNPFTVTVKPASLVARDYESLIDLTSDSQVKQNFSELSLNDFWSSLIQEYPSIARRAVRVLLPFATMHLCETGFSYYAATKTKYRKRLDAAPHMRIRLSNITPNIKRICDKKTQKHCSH
UniProt Q9NQZ6: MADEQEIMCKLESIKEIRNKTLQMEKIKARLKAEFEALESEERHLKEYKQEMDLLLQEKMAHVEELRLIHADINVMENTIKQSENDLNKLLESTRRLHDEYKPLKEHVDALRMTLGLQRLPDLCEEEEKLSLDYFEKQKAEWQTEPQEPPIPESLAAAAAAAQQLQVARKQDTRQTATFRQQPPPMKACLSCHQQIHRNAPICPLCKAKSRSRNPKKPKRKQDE
UniProt Q9H5U6: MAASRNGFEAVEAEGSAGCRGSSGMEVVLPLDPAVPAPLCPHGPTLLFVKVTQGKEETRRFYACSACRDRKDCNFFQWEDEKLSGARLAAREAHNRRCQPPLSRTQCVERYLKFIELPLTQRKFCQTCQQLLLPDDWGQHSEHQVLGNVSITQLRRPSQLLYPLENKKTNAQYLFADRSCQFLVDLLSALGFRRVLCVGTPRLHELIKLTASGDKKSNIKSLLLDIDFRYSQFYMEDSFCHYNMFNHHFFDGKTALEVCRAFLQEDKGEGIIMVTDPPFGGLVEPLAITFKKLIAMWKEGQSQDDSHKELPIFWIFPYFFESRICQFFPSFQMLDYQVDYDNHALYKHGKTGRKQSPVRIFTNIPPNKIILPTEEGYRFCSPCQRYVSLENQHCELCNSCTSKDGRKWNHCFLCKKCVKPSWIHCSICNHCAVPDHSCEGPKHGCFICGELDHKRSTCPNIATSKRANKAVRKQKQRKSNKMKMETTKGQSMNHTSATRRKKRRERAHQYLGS
UniProt Q96GR4: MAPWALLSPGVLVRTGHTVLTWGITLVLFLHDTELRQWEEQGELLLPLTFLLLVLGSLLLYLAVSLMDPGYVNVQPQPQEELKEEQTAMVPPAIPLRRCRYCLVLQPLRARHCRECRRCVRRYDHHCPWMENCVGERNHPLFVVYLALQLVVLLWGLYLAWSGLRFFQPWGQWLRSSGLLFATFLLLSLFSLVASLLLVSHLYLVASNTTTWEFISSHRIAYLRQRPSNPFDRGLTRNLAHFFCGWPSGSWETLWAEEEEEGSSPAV
UniProt Q5TC79: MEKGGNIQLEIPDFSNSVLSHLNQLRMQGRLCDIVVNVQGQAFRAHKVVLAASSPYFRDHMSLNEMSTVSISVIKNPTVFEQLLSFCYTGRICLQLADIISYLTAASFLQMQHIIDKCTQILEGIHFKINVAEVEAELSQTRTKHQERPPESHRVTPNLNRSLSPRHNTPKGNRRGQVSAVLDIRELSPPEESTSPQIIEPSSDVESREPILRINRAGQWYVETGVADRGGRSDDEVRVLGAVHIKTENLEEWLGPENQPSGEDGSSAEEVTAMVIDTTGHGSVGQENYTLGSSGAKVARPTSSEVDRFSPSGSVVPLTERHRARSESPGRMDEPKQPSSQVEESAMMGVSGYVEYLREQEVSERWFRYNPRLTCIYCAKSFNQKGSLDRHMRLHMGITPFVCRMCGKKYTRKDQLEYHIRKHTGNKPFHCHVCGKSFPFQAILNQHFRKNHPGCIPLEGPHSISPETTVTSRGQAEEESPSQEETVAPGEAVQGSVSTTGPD
UniProt O15062: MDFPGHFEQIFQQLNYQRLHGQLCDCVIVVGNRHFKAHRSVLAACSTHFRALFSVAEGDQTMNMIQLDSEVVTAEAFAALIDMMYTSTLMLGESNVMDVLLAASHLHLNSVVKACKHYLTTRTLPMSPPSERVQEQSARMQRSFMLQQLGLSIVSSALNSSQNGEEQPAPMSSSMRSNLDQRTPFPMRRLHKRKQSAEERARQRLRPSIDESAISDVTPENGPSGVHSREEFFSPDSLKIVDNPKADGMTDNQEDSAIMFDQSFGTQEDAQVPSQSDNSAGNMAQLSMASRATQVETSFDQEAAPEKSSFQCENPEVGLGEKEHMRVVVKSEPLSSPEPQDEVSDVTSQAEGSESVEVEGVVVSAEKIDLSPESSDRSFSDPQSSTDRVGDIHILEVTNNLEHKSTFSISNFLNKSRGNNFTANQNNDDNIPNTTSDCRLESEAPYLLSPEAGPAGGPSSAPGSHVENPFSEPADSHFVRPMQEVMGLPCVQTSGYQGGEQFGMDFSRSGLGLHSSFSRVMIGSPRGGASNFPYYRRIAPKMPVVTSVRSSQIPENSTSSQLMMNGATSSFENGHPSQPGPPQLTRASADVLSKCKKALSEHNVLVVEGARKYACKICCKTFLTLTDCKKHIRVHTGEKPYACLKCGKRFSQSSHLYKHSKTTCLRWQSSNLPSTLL
UniProt Q8TBK6: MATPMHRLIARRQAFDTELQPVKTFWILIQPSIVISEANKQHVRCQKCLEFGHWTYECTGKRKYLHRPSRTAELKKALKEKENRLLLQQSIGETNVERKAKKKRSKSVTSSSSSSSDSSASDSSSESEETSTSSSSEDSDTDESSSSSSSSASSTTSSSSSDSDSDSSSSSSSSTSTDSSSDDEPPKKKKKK

Tests used:
Test in all cases: log2 fold change, soluble protein after heating vs DMSO (PISA); higher = thermal stabilisation; K562 lysate, 10 uM; active = over 0.2 and 3.5 SD of the protein, either way, in both replicates (recomputed)
lapatinib = compound: CS(=O)(=O)CCNCc1ccc(-c2ccc3ncnc(Nc4ccc(OCc5cccc(F)c5)c(Cl)c4)c3c2)o1 [lapatinib]
In short: (§1)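 Quantification was by TMTpro 16plex LC-MS/MS with equalised channel sums, applied to the supernatant after 21,000xg for 90 min. Samples were crude K562 extract at 1 mg/mL protein in PBS pH 7.4 with 1 mM MgCl2, treated with 10 μM compound for 30 min, heated for 3 min across 48°C-58°C, pooled and brought to 0.5% NP-40 at 4°C. Values are log-two fold changes in thermal stability relative to solvent controls, from duplicates.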

[1] = compound: C[C@H](C1=CC=C(C=C1)C(=O)NC2=C3C=CNC3=NC=C2)N
In short: as §1

gandotinib = compound: Cc1cc(Nc2cc(CN3CCOCC3)c3nc(C)c(Cc4ccc(Cl)cc4F)n3n2)n[nH]1 [gandotinib]
In short: as §1

[2] = compound: Cc1cccc(CC(=O)N2CCc3c2ccc(-c2cn(C)c4ncnc(N)c24)c3F)n1
In short: as §1

duvelisib = compound: C[C@H](Nc1ncnc2nc[nH]c12)c1cc2cccc(Cl)c2c(=O)n1-c1ccccc1 [duvelisib]
In short: as §1

crizotinib = compound: C[C@@H](Oc1cc(-c2cnn(C3CCNCC3)c2)cnc1N)c1c(Cl)ccc(F)c1Cl [crizotinib]
In short: as §1

tozasertib = compound: Cc1cc(Nc2cc(N3CCN(C)CC3)nc(Sc3ccc(NC(=O)C4CC4)cc3)n2)n[nH]1 [tozasertib]
In short: as §1

doramapimod = compound: Cc1ccc(-n2nc(C(C)(C)C)cc2NC(=O)Nc2ccc(OCCN3CCOCC3)c3ccccc23)cc1 [doramapimod]
In short: as §1

pictilisib = compound: CS(=O)(=O)N1CCN(Cc2cc3nc(-c4cccc5[nH]ncc45)nc(N4CCOCC4)c3s2)CC1 [pictilisib]
In short: as §1

bafetinib = compound: Cc1ccc(NC(=O)c2ccc(CN3CC[C@H](N(C)C)C3)c(C(F)(F)F)c2)cc1Nc1nccc(-c2cncnc2)n1 [bafetinib]
In short: as §1

Measured: log2 fold change

ZC3H3 (UniProt Q8IXZ2)
inactive: lapatinib -0.035 | [1] -0.039 | gandotinib 0.018 | [2] 0.055

ZBED6 (UniProt P86452)
inactive: lapatinib -0.01 | duvelisib -0.053

ZBTB43 (UniProt O43298)
inactive: lapatinib 0.057 | crizotinib 0.046 | duvelisib 0.011 | tozasertib 0.015 | doramapimod -0.03

YBX2 (UniProt Q9Y2T7)
inactive: pictilisib -0.338 | bafetinib -0.03

ZC3H14 isoform 11 (UniProt Q6PJT7)
inactive: crizotinib -0.022 | doramapimod 0.05

ZC3H12A (UniProt Q5D1E8)
inactive: crizotinib 0.083 | duvelisib 0.378 | tozasertib -0.093 | doramapimod -0.073

ZDHHC9 (UniProt Q9Y397)
inactive: crizotinib 0.087 | [1] -0.113 | gandotinib 0.14 | doramapimod 0.099 | [2] 0.04

XRCC2 (UniProt O43543)
inactive: pictilisib -0.072 | crizotinib 0.044 | [1] -0.001 | duvelisib 0.14 | gandotinib -0.171 | doramapimod 0.007 | bafetinib 0.045 | [2] 0.03

YAE1 (UniProt Q9NRH1)
inactive: pictilisib -0.029 | crizotinib 0.02 | [1] -0.034 | duvelisib -0.014 | gandotinib -0.005 | tozasertib -0.048 | doramapimod -0.036 | bafetinib -0.122 | [2] 0.003

ZFP92 (UniProt A6NM28)
inactive: tozasertib -0.058

ZC3H7A (UniProt Q8IWR0)
inactive: pictilisib -0.115 | crizotinib -0.074 | [1] -0.304 | duvelisib 0.075 | gandotinib 0.036 | tozasertib -0.042 | doramapimod 0.006 | bafetinib -0.056 | [2] 0.339

YIPF2 (UniProt Q9BWQ6)
inactive: crizotinib 0.076 | [1] 0.18 | gandotinib 0.063 | doramapimod -0.037 | [2] 0.021

2 successive entries from above, for reference:
YAE1 (UniProt Q9NRH1)
inactive: pictilisib -0.029 | crizotinib 0.02 | [1] -0.034 | duvelisib -0.014 | gandotinib -0.005 | tozasertib -0.048 | doramapimod -0.036 | bafetinib -0.122 | [2] 0.003

ZFP92 (UniProt A6NM28)
inactive: tozasertib -0.058

Going on with the list:

ZBTB48 (UniProt P10074)
inactive: duvelisib -0.029

ZCCHC7 (UniProt Q8N3Z6)
inactive: crizotinib -0.045 | duvelisib 0.054 | doramapimod -0.073

ZBTB7B isoform 2 (UniProt O15156)
inactive: pictilisib -0.386 | crizotinib -0.114 | duvelisib -0.027 | doramapimod 0.018 | bafetinib 0.019

YY1AP1 isoform 9 (UniProt Q9H869)
inactive: crizotinib -0.009 | [1] 0.316 | duvelisib 0.042 | gandotinib -0.087 | tozasertib 0.065 | doramapimod -0.06 | [2] -0.196

ZC3H10 (UniProt Q96K80)
inactive: pictilisib -0.038 | crizotinib -0.152 | duvelisib 0.078 | doramapimod 0.231 | bafetinib -0.007

ZBTB2 (UniProt Q8N680)
inactive: pictilisib -0.213 | crizotinib 0.039 | [1] 0.118 | duvelisib 0.013 | gandotinib 0.001 | tozasertib -0.005 | doramapimod -0.028 | bafetinib -0.22 | [2] -0.113

YBEY (UniProt P58557)
inactive: duvelisib 0.049 | tozasertib 0.035

XRCC1 (UniProt F5H8D7)
inactive: pictilisib 0.007 | duvelisib -0.088 | tozasertib 0.072 | bafetinib -0.128

ZFP36L2 (UniProt P47974)
inactive: pictilisib -0.085 | crizotinib 0.003 | [1] 0.014 | duvelisib 0.229 | gandotinib 0.069 | tozasertib -0.123 | doramapimod -0.048 | bafetinib -0.154 | [2] 0.276

ZFAT (UniProt Q9P243)
inactive: tozasertib 0.045

ZFX isoform 3 (UniProt P17010)
inactive: lapatinib -0.01 | crizotinib 0.082 | duvelisib 0.124 | doramapimod 0.102

ZBED5 (UniProt Q49AG3)
inactive: duvelisib -0.087

ZC4H2 (UniProt Q9NQZ6)
inactive: crizotinib 0.065 | doramapimod -0.054

ZCCHC4 (UniProt Q9H5U6)
inactive: [1] 0.334 | duvelisib -0.033 | gandotinib 0.055 | tozasertib 0.033 | [2] -0.076

ZDHHC12 isoform 3 (UniProt Q96GR4)
inactive: crizotinib -0.066 | doramapimod 0.035

ZDHHC2 (UniProt Q9UIJ5)
inactive: lapatinib 0.048 | crizotinib -0.236 | [1] -0.009 | gandotinib 0 | tozasertib 0.145 | doramapimod -0.001 | [2] 0.071

ZBTB39 (UniProt O15060)
inactive: duvelisib -0.094

ZBTB37 (UniProt Q5TC79)
inactive: crizotinib -0.03 | doramapimod 0

XRCC3 (UniProt O43542)
inactive: pictilisib -0.164 | crizotinib 0 | [1] 0.036 | duvelisib -0.004 | gandotinib 0.005 | doramapimod 0.013 | bafetinib -0.024 | [2] 0.071

ZFPM2 (UniProt Q8WW38)
inactive: pictilisib -0.398 | crizotinib -0.228 | [1] 0.033 | duvelisib 0.019 | gandotinib -0.225 | tozasertib -0.1 | doramapimod 0.118 | bafetinib -0.094 | [2] -0.034

YBX1 (UniProt C9J5V9)
inactive: crizotinib -0.114 | [1] -0.081 | gandotinib 0.023 | doramapimod 0.097 | [2] 0.074

ZBTB44 (UniProt Q8NCP5)
inactive: crizotinib -0.133 | doramapimod 0.036

ZDHHC13 (UniProt Q8IUH4)
inactive: pictilisib 0.041 | [1] 0.038 | duvelisib -0.12 | gandotinib 0.09 | bafetinib -0.074 | [2] 0.01

ZBTB5 (UniProt O15062)
inactive: crizotinib 0.031 | duvelisib 0.003 | tozasertib -0.144 | doramapimod 0.07

ZFAND1 (UniProt Q8TCF1)
inactive: pictilisib 0.028 | crizotinib 0.036 | [1] 0.412 | duvelisib -0.095 | gandotinib -0.205 | tozasertib -0.072 | doramapimod 0.026 | bafetinib -0.15 | [2] -0.316

ZDHHC8 isoform 3 (UniProt Q9ULC8)
inactive: [1] -0.2 | gandotinib 0.27 | [2] 0.209

ZBTB11 (UniProt O95625)
inactive: lapatinib 0.211 | crizotinib -0.021 | [1] -0.074 | gandotinib 0.05 | doramapimod -0.087 | [2] 0.054

ZCCHC10 (UniProt Q8TBK6)
inactive: pictilisib -0.078 | crizotinib 0.041 | duvelisib -0.125 | tozasertib 0.013 | doramapimod 0.003 | bafetinib 0.084
